Values after ≈ are worked out from the molar mass of the structure shown.
Tested on: Staphylococcus epidermidis ATCC 12228
Test: MIC broth microdilution, method 1
Assay type: cell-based
Settings: ATCC12228, reference compound, read-out: MIC (Concurrent)

CN[C@H](CC(C)C)C(=O)N[C@H]1C(=O)N[C@@H](CC(N)=O)C(=O)N[C@H]2C(=O)N[C@H]3C(=O)N[C@H](C(=O)N[C@H](C(=O)O)c4cc(O)cc(O)c4-c4cc3ccc4O)[C@H](O)c3ccc(c(Cl)c3)Oc3cc2cc(c3O[C@@H]2O[C@H](CO)[C@@H](O)[C@H](O)[C@H]2O[C@H]2C[C@](C)(N)[C@H](O)[C@H](C)O2)Oc2ccc(cc2Cl)[C@H]1O [Vancomycin, reference compound] showed an MIC of 1 µg/mL (≈ 0.69 µM).

Reference: US20240174714A1, “TREATMENT OF SKIN DISORDERS” (priority 2021, published 2024)
